From paper PMC12040169 (PLOS Biology, 2025)
Some of the results follow.

system: T1, CTL2-GFP (C. trachomatis L2/434/Bu, GFP-expressing); design: species or system HeLa; Intracellular C. trachomatis growth in HeLa cells, bulk GFP fluorescence relative to DMSO; conditions: bulk GFP, single well; 28.5 h, 10 µM; inhibitor
T1 construct: L2/434/Bu, GFP-expressing

Going from `CCN(CC)C(=O)CN1CCN(c2nccnc2Oc2ccc(F)cc2)CC1` [CBK083020T] to `CCN(CC)C(=O)CN1CCN(c2nccnc2OCCN2C(=O)CCC2=O)CC1` [CBK084297], the “% of control remaining” value falls from 125.728% to 102.056%.

First: COc1ccc(OC[C@@H](N)C(C)C)cc1 [CBK284299]
Second: COc1ccc(C2CC(Cn3cc(C(C)=O)c(=O)[nH]c3=O)ON2C)cc1 (centres unmarked) [CBK019386]
The “% of control remaining” value of the first is higher: 147.86% for the first, 90.4302% for the second.

Going from `Cc1ccc(C(=O)Nc2ccccc2C(=O)O)cc1S(=O)(=O)NCc1ccccc1` [CBK263212] to `O=C(CCCc1ccccc1)Nc1ccccc1C(=O)O` [CBK265516], the “% of control remaining” value falls from 123.381% to 100%.

Compared with `CCc1ccc(CNC(=O)c2ccc3c(c2)NC(=O)C(N2CCOCC2)S3)cc1` (centres unmarked) [CBK071737], `CCOc1ccc(CNc2ccc(N3CCOCC3)c(C(=O)O)c2)cc1OC` [CBK269192] is higher in “% of control remaining” value: 108.283% for the first, 150.438% for the second.

Going from `c1ccc(-c2nccnc2NCc2ccco2)cc1` [CBK088642] to `C[C@@H](c1ccccc1)n1c(=O)[nH]c2ncc(-c3ccco3)nc21` [CBK064168], the “% of control remaining” value rises from 146.605% to 158.507%.

Compared with `O=C(Nc1cc2ccccc2c(N2CCNCC2)n1)c1ccccc1` [CBK028423T], `O=C(c1ccccc1)c1cccc(OCCOc2nccnc2N2CCNCC2)c1` [CBK014250G] is lower in “% of control remaining” value: 117.805% for the first, 102.466% for the second.

Going from `COc1ccc2[nH]c(CN3CCCC(c4nc(C)n[nH]4)C3)c(C)c2c1` (centres unmarked) [CBK306904] to `Cc1nc(C)n(CC2CCCN(c3ncnc4ccsc34)C2)n1` (centres unmarked) [CBK304037], the “% of control remaining” value rises from 129.78% to 131.177%.

Compared with `CC1CCc2nc(NC(=O)Cn3cccc(C(=O)Nc4ccc(F)cc4)c3=O)sc2C1` (centres unmarked) [CBK286063], `Cc1ccc(CC(=O)N2CCC(c3ncc(C(=O)Nc4ccc(F)cc4)c(C)n3)CC2)cc1` [CBK285884] is lower in “% of control remaining” value: 116.821% for the first, 98.9212% for the second.

Going from `Cc1nc(CN2CCC(C(=O)c3ccc(F)cc3)CC2)cs1` [CBK149147] to `CCCc1cc(C(=O)NC2CCN(Cc3cccc(F)c3)CC2)[nH]n1` [CBK282465], the “% of control remaining” value rises from 128.772% to 133.203%.

Compared with `O=C(O)c1cc(S(=O)(=O)Nc2ccc3cc(Br)cnc3n2)c(F)cc1Cl` [CBK073898], `Cc1cc(Br)ccc1NC(=O)c1cnc2sccn2c1=O` [CBK246520] is lower in “% of control remaining” value: 118.236% for the first, 108.351% for the second.

Compared with `Cc1ccc(C(=O)N[C@@H]2C[C@H](C)CC[C@H]2C(C)C)cc1C` [CBK085823], `COCCNC(=O)c1ccc(-c2cc(C)cs2)nc1NCC1CC1` [CBK106259] is higher in “% of control remaining” value: 94.9035% for the first, 109.771% for the second.

Going from `Nc1cccc2c(OCCO)cccc12` [CBK001976C] to `Oc1cccc(OCCOc2cc(C(F)(F)F)ccn2)c1` [CBK115788], the “% of control remaining” value rises from 17.4482% to 113.008%.

Compared with `CC[C@H]1CN(C(=O)c2ccnc(Cl)c2)CC[C@H]1CC(=O)O` [CBK289139], `CCN1CCCC1CNS(=O)(=O)c1cc(C(N)=O)ccc1OC` (centres unmarked) [CBK267815] is lower in “% of control remaining” value: 139.528% for the first, 82.1902% for the second.

Going from `CCOCC(=O)N(C)C1CCN(c2ncnc3ccccc23)CC1` [CBK306247] to `CS(=O)(=O)c1ccc(Nc2ncnc(N3CCC(Sc4ccccc4)CC3)c2[N+](=O)[O-])cc1` [CBK113567], the “% of control remaining” value rises from 113.555% to 127.389%.

Going from `COc1ccc(CNC(=O)C2CCCN(c3nc4c(-c5ccccc5)csc4c(=O)[nH]3)C2)cc1` (centres unmarked) [CBK215464] to `COc1ccccc1-c1ccc(CC2(C(=O)NCCc3ccc(F)cc3)CCOCC2)cc1` [CBK286520], the “% of control remaining” value falls from 140.379% to 63.6414%.

Compared with `Cc1c(C(=O)O)sc2nc(C=Cc3cc([N+](=O)[O-])ccc3Cl)[nH]c(=O)c12` [CBK295613], `O=C(Nc1ccc(Cc2ccncc2)cc1)c1sc2c([N+](=O)[O-])cccc2c1Cl` [CBK269635] is lower in “% of control remaining” value: 128.06% for the first, 102.914% for the second.

First: O=C(Cc1ccccc1)Nc1ccc2[nH]ncc2c1 [CBK288211]
Second: COC(=O)c1c(NC(=S)Nc2ccccc2)sc(Cc2ccccc2)c1C [CBK263501]
The “% of control remaining” value of the first is lower: 108.755% for the first, 109.105% for the second.

First: Cc1nn(CC(=O)NC(C)(C)C)c(=O)c2cc3ccsc3n12 [CBK284082]
Second: O=C(c1cc(Cl)c[nH]1)N1CCN(Cc2cc(=O)n3ccsc3n2)CC1 [CBK306313]
The “% of control remaining” value of the first is higher: 118.399% for the first, 102.158% for the second.

First: O=C(CCNCCc1c[nH]c(=O)[nH]c1=O)Nc1cccc(Cl)c1 [CBK306889]
Second: NC(=O)c1c(NC(=O)CCN2C(=O)c3cccc([N+](=O)[O-])c3C2=O)sc2c1CCCC2 [CBK263132]
The “% of control remaining” value of the first is higher: 125.04% for the first, 97.3828% for the second.

Going from `COc1ccccc1N(CC(=O)NC(C(C)C)C(C)C)S(=O)(=O)c1ccccc1` [CBK101384] to `COc1ccc(OC)c(N(CC(=O)N2CCN(C)CC2)S(=O)(=O)c2ccccc2)c1` [CBK264131], the “% of control remaining” value falls from 103.422% to 100%.

Compared with `O=C(c1ccccn1)N1CCN(CCc2ccccc2)CC1` [CBK200201], `O=C(c1cccc(-c2nnc(-c3ccccc3)o2)c1)N1CCN(C(=O)c2ccco2)CC1` [CBK269809] is higher in “% of control remaining” value: 138.122% for the first, 139.133% for the second.

Going from `O=C(CCN1C(=O)/C(=C/c2ccc(F)cc2)SC1=S)NNC(=O)c1ccncc1` [CBK262821] to `O=C(O)CNC(=O)/C(=C\c1ccc(F)cc1)NC(=O)c1ccco1` [CBK263718], the “% of control remaining” value rises from 121.536% to 122.62%.

First: CC(=O)Nc1ccc(-c2cncc(NC(C)CCCC(C)(C)O)n2)cc1 (centres unmarked) [CBK065894]
Second: CC(c1ccccc1)c1nc2cnccn2c1NC(C)(C)C (centres unmarked) [CBK283533]
The “% of control remaining” value of the first is higher: 162.198% for the first, 110.074% for the second.

First: COc1ccc(C(=O)N2CCC3(CCCN(CCc4c[nH]c5ccccc45)C3)C2)cc1OC (centres unmarked) [CBK137143]
Second: COC(=O)CCc1ccc(S(=O)(=O)N2CCN(Cc3cccc4cccnc34)CC2)cc1 [CBK062969]
The “% of control remaining” value of the first is higher: 116.581% for the first, 108.004% for the second.

Compared with `COc1cccc(/C=C(/C#N)c2ccc(Cl)cc2)c1OCc1cccc(C(=O)O)c1` [CBK266721], `O=C(C1=C(O)C(=O)N(Cc2cccnc2)C1c1ccc(Cl)cc1Cl)c1ccccc1` (centres unmarked) [CBK263367] is lower in “% of control remaining” value: 139.835% for the first, 107.402% for the second.

Going from `c1ccc2nc(N3CCCC3)c(OC3CCOC3)nc2c1` (centres unmarked) [CBK115769] to `N#CCCCN1CCCN(c2nccc(OCC3COc4ccccc4O3)n2)CC1` (centres unmarked) [CBK083977], the “% of control remaining” value falls from 110.725% to 109.645%.

Going from `O=C(C1CN(Cc2nc3ccsc3c(=O)[nH]2)c2ccccc2O1)N1CCOCC1` (centres unmarked) [CBK295189] to `CS(=O)(=O)N(CC(=O)Nc1ccccc1C(=O)N1CCOCC1)c1ccc(F)c(Cl)c1` [CBK267931], the “% of control remaining” value falls from 144.933% to 105.114%.

Compared with `O=C(c1ccco1)N1CCN(c2ccc(-c3cccc(Cl)c3Cl)cn2)CC1` [CBK037737], `c1cncc(COc2cc(N3CCCC3)ncn2)c1` [CBK115894] is lower in “% of control remaining” value: 130.359% for the first, 100% for the second.

Going from `O=C(NC1CC1)C1(Cc2ccccc2-c2cccnc2)CCOCC1` [CBK285222] to `O=C(NC1CCCCC1)N[C@H]1CO[C@H]2[C@@H]1OC[C@@H]2n1cc(-c2ccccc2)nn1` [CBK289505], the “% of control remaining” value rises from 120.227% to 132.215%.

Going from `COc1ccc2[nH]c(=O)c(CNc3ccc4c(c3)-c3ccccc3S(=O)(=O)N4)cc2c1` [CBK286409] to `COc1ccc(-c2ccc3c(c2)C(=O)N2CC[C@H](NC(=O)CCC(=O)O)[C@H]2C(=O)N3)cc1` [CBK289331], the “% of control remaining” value falls from 139.349% to 136.048%.

Going from `CCCOC(=O)c1c(NC(=O)c2cc(-c3ccccc3)nc3ccccc23)sc2c1CCC(C)C2` (centres unmarked) [CBK262647] to `CC(=O)Nc1cccc(-c2cnc(NCc3ccc4c(c3)OCO4)c(C(=O)NCC3COc4ccccc4O3)c2)c1` (centres unmarked) [CBK138473T], the “% of control remaining” value falls from 100% to 84.7296%.

Compared with `OCC1CCCN1c1cncc(-c2ccc(F)cc2F)n1` (centres unmarked) [CBK065891], `OCCC1CCCCN1c1cncc(-c2cccs2)n1` (centres unmarked) [CBK065758] is higher in “% of control remaining” value: 108.947% for the first, 111.768% for the second.

Going from `CCN1C(=O)N(CC)C2C1NC(=O)N2CCCC(=O)O` (centres unmarked) [CBK287131] to `O=C(O)CCCNS(=O)(=O)c1ccc(I)cc1` [CBK269160], the “% of control remaining” value falls from 135.055% to 131.806%.

Going from `Nc1nc(OCCc2cccs2)cnc1-c1ccc(OC(F)(F)F)cc1` [CBK145116] to `Cn1c(=O)oc2cc(S(=O)(=O)Nc3cccc(CCc4ccccn4)c3)ccc21` [CBK286357], the “% of control remaining” value falls from 111.596% to 98.1968%.

First: O=C(CN1C2CCC1CC(O)(c1ccco1)C2)N1CCCC1 (centres unmarked) [CBK284042]
Second: O=C(C1CCCCC1)N1CCC(c2nnc(-c3ccsc3)o2)CC1 [CBK283380]
The “% of control remaining” value of the first is higher: 137.953% for the first, 134.858% for the second.

Compared with `c1cn2cnnc2c(N2CCc3sccc3C2)n1` [CBK305180], `COc1ccc2cc3c(nc2c1)OC(=O)N(CC1CC1)C3` [CBK282432] is lower in “% of control remaining” value: 88.3306% for the first, 2.794% for the second.

Going from `OCC[C@H]1CN2CCCC2CN1Cc1cccn1-c1cccc(F)c1` (some centres unmarked) [CBK282985] to `COCC1(C(=O)N2CC(=O)N(c3ccc(Cl)cc3)CC2C)CCC1` (centres unmarked) [CBK306674], the “% of control remaining” value falls from 137.463% to 110.857%.

Compared with `CN(CC(=O)N1CCCCCC1)S(=O)(=O)c1cc(Cl)ccc1Cl` [CBK091841], `O=C(Nc1nnn[nH]1)C1(c2ccc([N+](=O)[O-])cc2)CCCC1` [CBK267237] is higher in “% of control remaining” value: 105.103% for the first, 151.8% for the second.

`Cc1[nH]nc(Nc2ccc(I)cc2)c1[N+](=O)[O-]` [CBK262748] was tested, and the “% of control remaining” value was 115.821%.
